{"source": "PubChem BioAssay AID540276", "about": "(National Center for Advancing Translational Sciences (NCATS), 2011)", "note": "Hit rate of the full screen: of about 300,000 compounds, about 5,400 (1.8%) were called active. The inconclusive results got no clear call from the source; some entries with a clear call stand among them for comparison. Calls follow the shape of the full dose curve; tested in HEK293 cells. A potency beside an inconclusive call is a rough fit, not a confirmed value. % is scaled to controls: 0 for no effect and ±100 for the full control effect; potency is read from the fitted curve at half-maximal effect."}
{"assay": "qHTS for inhibitors of binding or entry into cells for Marburg Virus", "details": "Marburg virus pseudotyped entry inhibition, cell reporter; activity change, negative = inhibition: at 37.8 µM (top of the series) unless noted"}
{"smiles": "COc1cccc(-c2nnn(C/C(N)=N/O)n2)c1", "Potency": "inconclusive: 0.794 µM [activator, full curve, poor fit]"}
{"smiles": "CCOc1ccc(C(=O)Nc2ccc(NC(=O)c3ccco3)c(Cl)c2)cc1Br", "Potency": "inconclusive: 6.51 µM [inhibitor, partial curve]"}
{"smiles": "Cc1ccc(NC(=S)NCc2ccccc2)c(C)c1", "Potency": "inactive"}
{"smiles": "COc1ccc(-n2c(=O)c(CCC(=O)N3CCN(c4ccccc4O)CC3)nc3ccccc32)cc1", "Potency": "inconclusive: 0.199 µM [inhibitor, full curve, poor fit]"}
{"smiles": "CCN(CC)C(=O)c1ccc(NC(=O)c2cccc(F)c2)cc1", "Potency": "inactive"}
{"smiles": "Cn1c(=O)c(C(=O)NCCc2ccccc2)c(O)c2ccccc21", "Potency": "inconclusive: 31.6 µM [activator, single point]"}
{"smiles": "O=C(Nc1ccc2c(c1)[nH]c(=O)c1ccccc12)C(F)(F)F", "Potency": "inconclusive: 11.2 µM [activator, single point]"}
{"smiles": "O=C(NCc1ccco1)c1ccc(Br)s1", "Potency": "inactive"}
{"smiles": "C/C(=N\\NC(=O)c1nn(C)c(C)c1Br)c1cccc(NC(=O)c2ccc(F)cc2)c1", "Potency": "inconclusive: 35.5 µM [inhibitor, single point]"}
{"smiles": "C/C(=N\\NC(=O)Cc1ccccc1[N+](=O)[O-])c1cccnc1", "Potency": "inconclusive: 10 µM [activator, partial curve, poor fit]"}
{"smiles": "Cc1ccc2cc3cc(C(=O)NCc4ccco4)oc3nc2c1", "Potency": "inconclusive: 7.08 µM [inhibitor, partial curve]"}
{"smiles": "OCCCc1nc2n(n1)C(c1cccs1)C=C(c1ccccc1)N2", "note": "(stereo unspecified)", "Potency": "inactive"}
{"smiles": "Cc1ccc(C(c2nnnn2Cc2cccs2)N2CCN(Cc3ccc4c(c3)OCO4)CC2)cc1", "note": "(stereo unspecified)", "Potency": "inconclusive: 15.8 µM [inhibitor, partial curve]"}
{"smiles": "CC(=O)c1c(C)[nH]c(C(=O)OCC(=O)Nc2cccc(S(=O)(=O)N3CCCC3)c2)c1C", "Potency": "inconclusive: 8.91 µM [inhibitor, partial curve, poor fit]"}
{"smiles": "O=C(Cc1ccccc1[N+](=O)[O-])NCc1ccccc1Cl", "Potency": "inconclusive: 29.1 µM [inhibitor, single point]"}
{"smiles": "C=C1C2(C(=O)Nc3ccc(SC(F)F)cc3)CCC(C2)C1(C)C", "note": "(stereo unspecified)", "Potency": "inactive"}
{"smiles": "Cc1ccc(-c2cc(C(=O)N/N=C/C(Br)=C/c3ccccc3)n[nH]2)o1", "Potency": "inconclusive: 7.08 µM [inhibitor, full curve, poor fit]"}
{"smiles": "Cc1cccc(C)c1N1CCN(c2cc(Cl)nc(N)n2)CC1", "Potency": "inactive"}
{"smiles": "Cc1ccc(NC(=O)CSc2nc3ccccc3nc2N2CCOCC2)cc1", "Potency": "inconclusive: 35.5 µM [inhibitor, partial curve, poor fit]"}
{"smiles": "COc1cccc(COC(=O)c2c(C)nn(-c3ccccc3)c2Cl)c1OC", "Potency": "inconclusive: 0.501 µM [inhibitor, full curve]"}
{"smiles": "CCc1cc2c(cc3c(=O)n(CC(=O)NC4CCC(C)CC4)ncn32)s1", "note": "(stereo unspecified)", "Potency": "inactive"}
{"smiles": "COc1ccc(/C=N\\NC(=O)c2cccc(Br)c2)c(OC)c1", "Potency": "inconclusive: 35.5 µM [activator, single point]"}
{"smiles": "COc1ccc(C(CNC(=O)COc2ccc(Br)cc2F)N2CCCC2)cc1", "note": "(stereo unspecified)", "Potency": "inconclusive: 35.5 µM [inhibitor, single point]"}
{"smiles": "O=C1NC(c2cccc3ccccc23)Nc2ccc(Cl)cc21", "note": "(stereo unspecified)", "Potency": "inconclusive: 2.51 µM [inhibitor, partial curve, poor fit]"}
{"smiles": "Cc1ccccc1NC(=O)c1ccc(COc2ccc3c(C)cc(=O)oc3c2)cc1", "Potency": "inconclusive: 10.3 µM [inhibitor, partial curve]"}
{"smiles": "COc1ccc(COC(=O)NN=C2C[C@@H](O)[C@@H](O)[C@@H]3[C@H]4C(=O)N(C5CCCCC5)C(=O)[C@@H]4CC[C@H]23)cc1", "Potency": "inconclusive: 0.0067 µM [inhibitor, full curve, poor fit]"}
{"smiles": "CCOc1ccc(N(CC(=O)N2CCCCC2)S(=O)(=O)c2ccc(Cl)cc2)cc1", "Potency": "inconclusive: 7.94 µM [inhibitor, partial curve, poor fit]"}
{"smiles": "CN(C)c1oc(COc2ccc(F)cc2)nc1C#N", "Potency": "inconclusive: 4.11 µM [activator, partial curve, poor fit]"}
{"smiles": "O=C(Nc1cccs1)Nc1ccc(Br)cc1F", "Potency": "inconclusive: 2.91 µM [activator, partial curve]"}
{"smiles": "S=C(c1ccc(-c2ccccc2Cl)o1)N1CCOCC1", "Potency": "inactive"}
{"smiles": "CCOc1ccc(OCc2ccc(C(=O)Nc3cccnc3)o2)cc1", "Potency": "inconclusive: 11.2 µM [inhibitor, partial curve, poor fit]"}
{"smiles": "COc1ccc(Cl)cc1NC(=O)N1CCN(c2ccccc2OC)CC1", "Potency": "inconclusive: 15.8 µM [inhibitor, single point]"}
{"smiles": "CCOc1ccc(S(=O)(=O)NC(C)C(=O)NCc2ccccn2)cc1", "note": "(stereo unspecified)", "activity change, negative = inhibition": "inconclusive: 5.6% [activator] [at 46.1 µM]"}
{"smiles": "Cc1c(C(=O)O)sc2nc(CSc3nnc(-c4ccc(F)cc4)n3C)[nH]c(=O)c12", "Potency": "inconclusive: 6.31 µM [inhibitor, single point]"}
{"smiles": "S=C(NNc1ccnc2cc(Cl)ccc12)Nc1ccccc1Cl", "Potency": "inconclusive: 1.12 µM [inhibitor, partial curve, poor fit]"}
{"smiles": "N#Cc1ccc(C(=O)Nc2ccc(S(=O)(=O)NC3=NCCCCC3)cc2)cc1", "Potency": "inconclusive: 6.31 µM [inhibitor, partial curve]"}
{"smiles": "C#CCn1cc(/C=N/NC(=O)c2cc3ccccc3o2)c2ccccc21", "Potency": "inconclusive: 29.1 µM [inhibitor, partial curve, poor fit]"}
{"smiles": "O=c1c2cc3c(=O)n(CC4CCCO4)c(=O)c3cc2c(=O)n1CC1CCCO1", "note": "(stereo unspecified)", "Potency": "inactive"}
{"smiles": "O=C(NCc1cccs1)c1cc(-c2ccccc2)nc2ccccc12", "Potency": "inconclusive: 35.5 µM [inhibitor, partial curve, poor fit]"}
{"smiles": "CCCCCN(C(=O)CCC(=O)OCC(=O)N(CC#N)c1ccccc1)c1c(N)n(CCCC)c(=O)[nH]c1=O", "Potency": "inconclusive: 0.0891 µM [activator, full curve, poor fit]"}
{"smiles": "COc1ccc(NC(=O)c2cc(-c3ccc(C)o3)nc3ccccc23)cc1OC", "Potency": "inconclusive: 22.4 µM [inhibitor, single point]"}
{"smiles": "CCc1ccccc1NC(=O)C1CCCN(C(=O)c2cnn(-c3ccccc3)c2-n2cccc2)C1", "note": "(stereo unspecified)", "Potency": "inconclusive: 35.5 µM [inhibitor, single point]"}
{"smiles": "CC/C(=N\\N1CCCCCC1)c1c(O)n(-c2ccc(C)cc2)c(=O)[nH]c1=O", "Potency": "inactive"}
{"smiles": "O=C(c1cc2ccccc2oc1=O)N(Cc1ccco1)Cc1cccs1", "Potency": "inconclusive: 29.1 µM [inhibitor, single point]"}
{"smiles": "C/C(CC(=O)NCCCN1CCOCC1)=N\\NC(=O)COc1cccc2ccccc12", "Potency": "inconclusive: 35.5 µM [activator, single point]"}
{"smiles": "CCn1c(COc2ccc(OC)cc2)nc2ccccc21", "Potency": "inactive"}
{"smiles": "CN(C)C(=S)Nc1ccc2ccccc2c1", "Potency": "inconclusive: 22.4 µM [activator, single point]"}
{"smiles": "CN(C)CCNC(=O)c1cccc2[nH]c(-c3ccncc3)nc12", "Potency": "inconclusive: 35.5 µM [inhibitor, single point]"}
{"smiles": "Cc1cc(C)c(C#N)c(SCC(=O)c2cc(C)n(CCc3ccccc3)c2C)n1", "Potency": "inconclusive: 10 µM [inhibitor, partial curve, poor fit]"}
{"smiles": "COc1ccc(-c2csc(N(C)C(=O)c3ccco3)n2)cc1", "Potency": "inactive"}
{"smiles": "CCn1c(SCC(=O)Nc2cccc(NC(=O)c3ccco3)c2)nnc1-c1cccs1", "Potency": "inconclusive: 8.91 µM [inhibitor, partial curve, poor fit]"}
{"smiles": "Cc1cccn2c(=O)c3cc(C(=O)NC4CCCC4)c(=N)n(C4CCCCC4)c3nc12", "Potency": "inconclusive: 5.8 µM [inhibitor, full curve, poor fit]"}
{"smiles": "Cc1cc2cc(CN(CCN3CCOCC3)C(=O)Nc3ccccc3F)c(=O)[nH]c2cc1C", "Potency": "inactive"}
{"smiles": "COc1ccc(S(=O)(=O)N2CCN(CCCOc3ccc(F)cc3)CC2)cc1OC", "Potency": "active: 10 µM"}
{"smiles": "CCCn1c(=O)c(C(=O)NCc2ccc(OC)c(OC)c2)c(O)c2ccccc21", "Potency": "inactive"}
{"smiles": "C[C@H](N=C(NC#N)Nc1ccncc1)C(C)(C)C", "Potency": "inactive"}
{"smiles": "Nc1cc(N)c2c(c1)C(=O)c1ccccc1-2", "Potency": "inconclusive: 11.2 µM [activator, partial curve]"}
{"smiles": "Cc1n[nH]c(=S)n1/N=C/c1c(O)ccc2ccccc12", "Potency": "inconclusive: 3.16 µM [activator, partial curve, poor fit]"}
{"smiles": "CCc1nc2ccccc2c(C(=O)OCC(=O)Nc2cccc(S(=O)(=O)NC3=NCCCCC3)c2)c1C", "Potency": "inconclusive: 15.8 µM [inhibitor, partial curve, poor fit]"}
{"smiles": "O=C1CC(=O)N(Cc2ccccc2)C(=S)N1", "Potency": "inactive"}
{"smiles": "CC(C)CC(c1nnnn1Cc1ccccc1)N1CCN(C(=O)c2ccco2)CC1", "note": "(stereo unspecified)", "Potency": "inconclusive: 11.2 µM [inhibitor, single point]"}
{"smiles": "O=C(N/N=C/c1cc(Br)cs1)c1ccc2c(c1)OCCO2", "Potency": "inconclusive: 10 µM [inhibitor, partial curve, poor fit]"}
{"smiles": "COc1ccc(COC(=O)c2sc3nc4n(c(=O)c3c2C)CCC4)cc1", "Potency": "inconclusive: 2.82 µM [inhibitor, partial curve]"}
{"smiles": "COc1cc2c(cc1OC)-c1cc(NC3CCCCC3)nc(=O)n1CC2", "Potency": "inactive"}
{"smiles": "Cc1nn(C)cc1[C@@H]1C[C@H]2CN(Cc3cccc(Cl)c3)C(=O)[C@]23CCCN13", "Potency": "inactive"}
{"smiles": "Cc1ccc(C2=NN(S(C)(=O)=O)C(c3ccc4c(c3)OCO4)C2)cc1", "note": "(stereo unspecified)", "Potency": "inconclusive: 1.16 µM [activator, single point]"}
